# Measured values published in publication doi:10.1101/717041.
# These are yes or no findings as the source states them, for the method shown. Binding seen in cells or lysates may run through a third protein. Binding can be weak; no strength is given. Tags and fused reporters may be left off the sequences shown.
# Molecular target: GST-tagged third PDZ domain of mPDZ (UniProt O75970)
# Assay: pull-down
binder,measurement,value
"His-Daple-CT (aa 1650 to 2028) (domain or fragment, UniProt Q9P219 1650-2028) GTAPPYVGVRPCSASPSSEMVTLEEFLEESNRSSPTHDTPSCRDDLLSDYFRKASDPPAIGGQPGPPAKKEGAKMPTNFVAPTVKMAAPTSEGRPLKPGQYVKPNFRLTEAEAPPSVAPRQAQPPQSLSLGRPRQAPVPPASHAPASRSASLSRAFSLASADLLRASGPEACKQESPQKLGAPEALGGRETGSHTLQSPAPPSSHSLARERTPLVGKAGSSCQGPGPRSRPLDTRRFSLAPPKEERLAPLHQSATAPAIATAGAGAAAAGSGSNSQLLHFSPAAAPAARTKPKAPPRSGEVATITPVRAGLSLSEGDGVPGQGCSEGLPAKSPGRSPDLAPHLGRALEDCSRGSVSKSSPASPEPGGDPQTVWYEYGCV",binding,binds
